Measurements as given in the supplement of paper PMC12889115.
The list shows a part of the results. Values are raw readings; no control value is given beside them.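 In the initial screen, polymyxin B was used at a concentration that permeabilizes Salmonella's outer membrane but not its inner membrane. Maximum growth was set by DMSO wells with or without polymyxin B. Since plates varied, data were ranked per plate, and compounds giving the lowest OD600 advanced as hits.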

System: Salmonella enterica serovar Typhimurium SL1344
Assay: bacterial growth OD600 after 18 h with compound and polymyxin B; higher = more bacterial growth (less inhibition)
Conditions: 50 µM, Mueller-Hinton broth

Compound | bacterial growth OD600 (polymyxin B 1 µg/mL) | bacterial growth OD600 (polymyxin B 0.75 µg/mL)
COc1cc(CN2CCC(n3nccc3NC(=O)c3ccccc3OC)CC2)ccc1F | 0.912 | –
COc1ccc(C(=O)NC2CC2)c(OC2CCN(Cc3ccccc3Cl)CC2)c1 | – | 0.634
CCN(Cc1ccccc1)C(=O)Cn1nnnc1CN1CCCC1 | – | 0.869
COCCn1cc(C(=O)NCC2(c3ccccc3)CCCC2)c(=O)c(C(=O)N(C)C2CCCCC2)c1 | – | 0.009
COc1ccc(N2CCN(C3CCCN(C(=O)CCn4ccnc4C)C3)CC2)cc1 (stereo unspecified) | 0.861 | –
COc1ccccc1OCc1cc(C(=O)N(C)CC2Cc3ccccc3O2)n[nH]1 (stereo unspecified) | 0.848 | –
CSCCCNC(=O)C1CCC(=O)N(CCCN2CCOCC2)C1 (stereo unspecified) | 0.799 | –
COc1cccc(OC)c1C(=O)N1CCCC(N2CCN(c3ccccc3F)CC2)C1 (stereo unspecified) | – | 0.781
COc1ccc(C(=O)NC2CC2)c(OC2CCN(CCCn3cccn3)CC2)c1 | 1 | –
Fc1ccccc1CC1CCN(Cc2nc(-c3cccs3)no2)CC1 | 0.711 | –
Cc1nc2ccccn2c1CN(C)C(=O)CC1(c2cccc(C(F)(F)F)c2)CC(=O)N(C2CC2)C1=O (stereo unspecified) | – | 0.611
O=C(CCC1CCCN(C(=O)CCN2CCCC2=O)C1)Nc1ccc(C(F)(F)F)cc1 (stereo unspecified) | 0.993 | –
CSc1ccccc1N1C(=O)CN(C(=O)c2ccccc2)CC1C (stereo unspecified) | – | 0.843
Cc1cnc(SCCN2CCOCC2)nc1C1CCCN(C(=O)Cc2ccc3c(c2)OCO3)C1 (stereo unspecified) | – | 0.987
O=C(Cn1cc(NC(=O)CCOc2ccccc2)cn1)NCCCn1nnc2ccccc21 | – | 0.825
CCC1CCCCN1C(=O)CC1(c2ccccc2OC)CC(=O)N(C)C1=O (stereo unspecified) | – | 0.844

2 of these compounds in a different format:
CCN(Cc1ccccc1)C(=O)Cn1nnnc1CN1CCCC1
  bacterial growth OD600 (polymyxin B 0.75 µg/mL): 0.869
COCCn1cc(C(=O)NCC2(c3ccccc3)CCCC2)c(=O)c(C(=O)N(C)C2CCCCC2)c1
  bacterial growth OD600 (polymyxin B 0.75 µg/mL): 0.009

Continuation:

Compound | bacterial growth OD600 (polymyxin B 1 µg/mL) | bacterial growth OD600 (polymyxin B 0.75 µg/mL)
COc1cccc(-c2noc(-c3ccc(NCCSC)nc3)n2)c1OC | 0.656 | –
Fc1ccccc1-n1cc(CNC2CCCc3c2cnn3-c2ccccn2)cn1 (stereo unspecified) | – | 0.813
COc1ccc(-c2ccccc2NC(=O)C2CCCN(C3CCOCC3)C2)cc1 (stereo unspecified) | – | 0.822
FC(F)(F)C(Nc1nc2nonc2nc1N1CCSCC1)c1ccccn1 (stereo unspecified) | – | 0.654
CCCc1cc(C(=O)N2CCc3c(cnc(C)c3CNS(=O)(=O)c3cccs3)C2)n(C)n1 | – | 0.787
Cc1ccccc1CC1(CO)CCCN(Cc2nc(-c3cccs3)oc2C)C1 (stereo unspecified) | 0.606 | –
C=CCC(=O)N1CCC2(CCCN(CC3CC3)C2=O)C1 (stereo unspecified) | 1.15 | –
Cc1ccc2c(c1)CN(Cc1ccc(OCCO)cc1)CC(c1ccsc1)O2 (stereo unspecified) | – | 0.085
CCC1(C2CCN(C(=O)[C@H]3C[C@@H]4C=C[C@H]3C4)CC2)NC(=O)N(Cc2ccc3c(c2)OCO3)C1=O (stereo partly specified) | – | 0.774
CCOC(=O)CC1COCCN1C(=O)c1cn(Cc2ccccc2Cl)nn1 (stereo unspecified) | 0.883 | –
Cc1oc(-c2cccs2)nc1CN1CCCC(Nc2ccccc2)C1 (stereo unspecified) | 0.704 | –
Cc1ccc(N2CCC(C3CCN(c4ncccn4)CC3)C2)nc1 (stereo unspecified) | – | 0.848
Cc1nn(C)cc1CN(C)CC1(O)CCCN(Cc2ccc(F)cc2)C1=O (stereo unspecified) | 0.929 | –
CCOC(=O)c1ccc(CNC(=O)C2CC(=O)c3sc(NC(=O)Cc4ccccc4)nc3C2)o1 (stereo unspecified) | – | 0.803
Cc1ccccc1CC(C1CCN(C(=O)/C=C/c2ccccc2)CC1)N(C)C(=O)C1CCC1 (stereo unspecified) | – | 0.002
